These are yes or no findings as the source states them, for the method shown. Some binding calls cover weakened binding; strength is not graded here.
Legend:
[1] = target: T1, mouse DLL3 (KACTUS, DLL-MM103) (mouse, UniProt O88516 33-490, limits assumed); experiment: SPR (Biacore 8K)
T1 construct: bought antigen of the Biacore assay; construct not described
T1 sequence (looked up): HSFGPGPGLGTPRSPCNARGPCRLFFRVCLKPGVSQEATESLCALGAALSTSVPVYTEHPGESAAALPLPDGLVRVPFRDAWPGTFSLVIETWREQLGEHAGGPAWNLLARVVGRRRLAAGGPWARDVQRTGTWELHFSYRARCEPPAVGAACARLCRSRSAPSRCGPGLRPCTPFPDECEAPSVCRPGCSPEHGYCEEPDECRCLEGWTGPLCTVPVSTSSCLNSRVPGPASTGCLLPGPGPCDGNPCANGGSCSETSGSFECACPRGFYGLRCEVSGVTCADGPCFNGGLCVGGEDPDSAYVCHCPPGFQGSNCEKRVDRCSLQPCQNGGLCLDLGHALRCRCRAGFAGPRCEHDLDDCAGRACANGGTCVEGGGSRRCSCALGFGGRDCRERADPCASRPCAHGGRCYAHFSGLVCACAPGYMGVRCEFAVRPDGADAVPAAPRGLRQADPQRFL

Sequences of proteins named here, by UniProt entry; tags and fusion partners are left off. A change or cut given only in a name is not applied to a line headed by its entry.
UniProt O88671: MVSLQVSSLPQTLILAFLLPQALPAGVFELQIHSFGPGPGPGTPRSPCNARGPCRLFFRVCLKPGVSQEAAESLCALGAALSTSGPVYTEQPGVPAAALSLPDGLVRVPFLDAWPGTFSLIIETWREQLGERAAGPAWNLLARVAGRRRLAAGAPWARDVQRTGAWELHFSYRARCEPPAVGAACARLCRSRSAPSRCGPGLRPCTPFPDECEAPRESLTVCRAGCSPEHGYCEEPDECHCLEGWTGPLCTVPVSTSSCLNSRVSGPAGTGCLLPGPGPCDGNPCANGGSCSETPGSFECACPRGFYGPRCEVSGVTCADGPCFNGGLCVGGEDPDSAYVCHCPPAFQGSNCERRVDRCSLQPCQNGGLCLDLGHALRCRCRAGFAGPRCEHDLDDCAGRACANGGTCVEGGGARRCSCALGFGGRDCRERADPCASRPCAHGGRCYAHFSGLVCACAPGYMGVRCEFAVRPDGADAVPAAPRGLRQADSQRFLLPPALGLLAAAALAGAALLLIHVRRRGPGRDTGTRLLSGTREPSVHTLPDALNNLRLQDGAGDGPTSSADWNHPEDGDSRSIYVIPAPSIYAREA

[2] = target: Rat DLL3 full-length protein on CHO-s cells (rat) (UniProt O88671); experiment: FACS on RatDLL3/CHO-s cells

B1: Hu6 (antibody, human IgG1, kappa, V domains shown)
VH: EVQLVQSGSELKKPGASVKVSCKASGYTFTDYYMNWVRQAPGQGLEWMGIINPYSGVTIYNHKFKGRFALSVDKSSNTAYLQISSLKAEDTAVYYCARQDSLLDYAMDYWGQGTTVTVSS
VL: DIQMTQSPSSLSASVGDRVTITCHASQGISGNMGWLQQKPGKAPKGLIYHGANLEDGVPSRFSGSGSGADYTLTISSLQPEDFADYYCVQYAQFPYTFGGGTKVEIKR
notes: also called hAb6L4H12
- binding [1]: binds
- binding [2]: binds

Source: patent publication US20250057968A1, “ANTI-DLL3 ANTIBODY AND PHARMACEUTICAL USE THEREOF, AND ANTIBODY-DRUG CONJUGATE CONTAINING ANTI-DLL3 ANTIBODY” (Jiangsu Hengrui Pharmaceuticals Co., Ltd., priority 2021, published 2025)
